The test deals with T1, untagged human Zcyto7 (human) (UniProt Q9UHF5).
T1 sequence (looked up): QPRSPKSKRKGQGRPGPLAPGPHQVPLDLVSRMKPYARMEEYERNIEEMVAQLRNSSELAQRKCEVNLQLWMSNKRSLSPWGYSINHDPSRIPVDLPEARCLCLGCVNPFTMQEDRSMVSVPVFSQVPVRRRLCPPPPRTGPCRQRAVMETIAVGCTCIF
The test can be described thus: co-expression in BHK cells, anti-EE affinity co-purification; interaction did not appear to be due to interchain disulfide bonding.

No constants are given. Whether binding was seen depends on the method and setting. In cells and extracts the contact can be indirect. Some binding calls cover weakened binding; strength is not graded here. Where a sequence is shown, tags or fusion partners need not be part of it.

B1: Human Ztgfβ-9 protein (ligand)
chain: AGAPRAGRRPARPRGCADRPEELLEQLYGRLAAGVLSAFHHTLQLGPREQARNASCPAGGRPADRRFRPPTNLRSVSPWAYRISYDPARYPRYLPEAYCLCRGCLTGLFGEEDVRFRSAPVYMPTVVLRRTPACAGGRSVYTEAYVTIPVGCTCVPEPEKDADSINSSIDKQGAKLLLGPNDAPAGP
notes: also called transforming growth factor beta-9
On to B1, for which the binding entry is on record as “binds”.

The values are drawn from patent publication US20100313281A1 (published 2010).
